Reference: paper PMC3265452 (PLoS Neglected Tropical Diseases, 2012)

Amino acid sequences for entries named in this document (tags omitted). Residues count along the entry.
UniProt H6D5H2, 1-476: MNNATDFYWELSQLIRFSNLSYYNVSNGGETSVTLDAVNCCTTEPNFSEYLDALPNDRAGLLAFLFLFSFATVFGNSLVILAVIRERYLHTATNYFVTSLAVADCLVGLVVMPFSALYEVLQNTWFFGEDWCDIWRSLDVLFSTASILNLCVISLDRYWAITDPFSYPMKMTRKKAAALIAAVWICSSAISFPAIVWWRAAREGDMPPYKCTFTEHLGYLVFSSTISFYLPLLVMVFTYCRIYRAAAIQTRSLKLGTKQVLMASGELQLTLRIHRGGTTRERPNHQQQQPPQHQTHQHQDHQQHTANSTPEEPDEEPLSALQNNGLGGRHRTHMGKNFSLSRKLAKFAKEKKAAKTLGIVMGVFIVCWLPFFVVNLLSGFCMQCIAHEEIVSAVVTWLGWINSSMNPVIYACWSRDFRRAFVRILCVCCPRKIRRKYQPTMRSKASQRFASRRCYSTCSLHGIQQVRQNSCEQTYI

Target: AaDOP2 (Aedes aegypti, UniProt H6D5H2)
Assay: AaDOP2 antagonist screen of the LOPAC1280 library (HEK-CRELuc-Aadop2 cells, luminescence)
Type: cell-based

COc1ccc(CC(C)NCC(O)c2ccc(O)c(NC=O)c2)cc1 (stereo not shown) [Compound 538, Formoterol]
Compound effect (percent receptor signaling in presence of test compound, relative lux units relative to the SCH23390 control): 91
